Results are given in words; binding and its absence hold for the method and conditions named. Binding can be weak; no strength is given.
Legend:
[1] = target: PEAPOD2 (PPD2), yeast two-hybrid fusion (Arabidopsis thaliana) (UniProt Q8GY55); assay: two-hybrid; S. cerevisiae PJ69-4A co-transformed with pGADT7 and pGBKT7 fusions; growth on SD lacking Leu, Trp and His (-3) against control (-2); 2 days at 30°C; empty vectors as controls
[2] = target: NOVEL INTERACTOR OF JAZ (NINJA), yeast two-hybrid fusion (Arabidopsis thaliana) (UniProt Q9SV55); assay: as above

The chains behind the UniProt entries cited, without tags or fusion partners. Where a name states a change or a piece, a line headed by the entry shows the natural chain unless it says otherwise.
UniProt Q8GY55: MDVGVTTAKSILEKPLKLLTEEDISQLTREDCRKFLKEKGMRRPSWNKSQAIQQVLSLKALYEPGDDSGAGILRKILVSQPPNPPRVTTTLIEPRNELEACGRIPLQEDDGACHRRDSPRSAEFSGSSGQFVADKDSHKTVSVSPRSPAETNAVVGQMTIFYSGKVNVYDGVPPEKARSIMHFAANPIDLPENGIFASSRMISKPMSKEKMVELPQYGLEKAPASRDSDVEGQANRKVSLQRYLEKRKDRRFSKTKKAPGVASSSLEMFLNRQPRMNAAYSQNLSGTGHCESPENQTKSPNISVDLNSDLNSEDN
UniProt Q9SV55: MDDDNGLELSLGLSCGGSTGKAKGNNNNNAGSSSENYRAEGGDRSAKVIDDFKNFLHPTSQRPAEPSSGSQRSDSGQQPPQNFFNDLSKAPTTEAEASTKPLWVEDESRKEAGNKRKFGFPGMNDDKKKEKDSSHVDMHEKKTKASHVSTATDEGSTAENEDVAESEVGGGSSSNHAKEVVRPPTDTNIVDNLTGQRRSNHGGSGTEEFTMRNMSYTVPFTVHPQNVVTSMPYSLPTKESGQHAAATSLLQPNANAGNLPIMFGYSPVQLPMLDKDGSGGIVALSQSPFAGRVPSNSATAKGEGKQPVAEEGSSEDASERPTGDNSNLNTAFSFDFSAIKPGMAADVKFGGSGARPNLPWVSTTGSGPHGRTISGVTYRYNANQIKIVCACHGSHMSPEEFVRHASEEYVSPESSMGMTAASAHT
UniProt Q84MB2: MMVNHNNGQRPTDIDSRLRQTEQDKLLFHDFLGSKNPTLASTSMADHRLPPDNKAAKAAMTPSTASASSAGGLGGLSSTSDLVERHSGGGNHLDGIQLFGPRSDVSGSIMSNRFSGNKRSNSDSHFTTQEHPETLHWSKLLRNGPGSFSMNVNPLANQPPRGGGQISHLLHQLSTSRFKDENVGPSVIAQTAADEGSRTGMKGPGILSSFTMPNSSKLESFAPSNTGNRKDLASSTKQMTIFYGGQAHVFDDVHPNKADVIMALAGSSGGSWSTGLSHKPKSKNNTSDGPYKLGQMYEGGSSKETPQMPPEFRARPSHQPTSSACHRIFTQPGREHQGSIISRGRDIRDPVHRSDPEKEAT

In the case of “ZIM domain of TIFY8 (truncation, yeast two-hybrid fusion) (from UniProt Q84MB2) (domain or fragment)”, the binding [1] is reported as “binds” and the binding [2] is reported as “binds”.

Reference: PMC3885651
